PubChem BioAssay AID1224826, NIAID, 2016
In all, the deposit lists about 17,000 reagents; below is a part drawn at random. About 1,110 of all reagents (6.6%) count as active. 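Active means lowered or raised reporter signal; replicate intensities are raw and not normalised per plate.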 Entries without a mark were called inactive. The numbers tell different reagents against one gene apart. Some reagents were tested in more than one well and are listed for each.

Test: 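Regulators of Tlr4 signalling leading to Tnf-alpha expression in macrophages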 (primary screen)
System: RAW264.7 G9 macrophages from mouse bearing reporters for p65 (GFP) and the Tnf promoter (mCherry)
Reagents: siRNA pool against mouse genes, 100 nM
Duration: 16 h of LPS stimulation, after 2 days of siRNA transfection
Treatment: bacterial lipopolysaccharide (Salmonella minnesota R595), 10 ng/ml
Measured: 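Imaged Tnf reporter mCherry in nuclei, minus background, normalised per plate to the median and expressed as robust z-scores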
Scale: Tnf reporter robust z-score: higher = stronger Tnf promoter reporter signal after LPS; Tnf reporter intensity: higher = stronger Tnf promoter reporter signal
Call rule: 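Called active when robust z-score is at most -1.3, matching the median of the Tlr4 knock-down control, or over 3; control wells and wells with under 50 cells never active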
Calls: active = Tnf reporter clearly lowered or raised; inactive = no clear change in Tnf reporter

gene,pool no.,Tnf reporter robust z-score,fewer than 50 cells in well,"Tnf reporter intensity, replicate 1","Tnf reporter intensity, replicate 2"
Krt34,1,-1.21,enough cells in well,148,53.8
Npy,1,1.33,enough cells in well,317,150
Acta1,1,0.87,enough cells in well,207,232
Notch3,1,0.05,enough cells in well,289,151
Ce9,1,1.34,enough cells in well,202,274
Ripk4,1,-1.25,enough cells in well,102,101
Tmtc1,1,0.36,enough cells in well,217,249
Slc9a7,1,0.75,enough cells in well,200,207
Csf2rb,1,-0.01,enough cells in well,220,216
Pkdrej,1,-0.11,enough cells in well,273,153
Zfp958,1,-0.05,enough cells in well,198,210
Grpel1,1,0.05,enough cells in well,243,171
Lsm2,1,0.94,enough cells in well,211,226
Optn,1,0.65,enough cells in well,295,221
Rab38,1,-0.51,enough cells in well,292,146
Brk1,1,0.47,enough cells in well,245,181
Prkci,1,0.36,enough cells in well,235,167
Syngr4,1,1.04,enough cells in well,225,68.4
Adgrl3,1,0.53,enough cells in well,261,334
Pik3cd,1,-0.05,enough cells in well,252,180
Spmip10,1,1.62,enough cells in well,359,118
Stmn4,1,2.61,enough cells in well,172,202
Lamtor3,1,,fewer than 50 cells per well; well left out of calls,126,140
Ifnl3,1,-0.38,enough cells in well,175,93.3
Atp6v1h,1,0.06,enough cells in well,159,151
Slc2a12,1,,fewer than 50 cells per well; well left out of calls,76.2,76.4
Arid4a,1,,fewer than 50 cells per well; well left out of calls,360,118
Zfp758,1,0.96,enough cells in well,267,180
Ruvbl1,1,0.42,enough cells in well,317,257
Cd83,1,-0.59,enough cells in well,209,155
Msh4,1,0.29,enough cells in well,287,227
Golga2,1,1.29,enough cells in well,333,248
Tmed3,1,,fewer than 50 cells per well; well left out of calls,425,180
Tas2r123,1,0.9,enough cells in well,127,144
Neurod4,1,1.1,enough cells in well,322,139
Or8k25,1,0.02,enough cells in well,148,184
Or8k25,2,2.3,enough cells in well,308,223
Pot1a,1,0.01,enough cells in well,238,200
Grk3,1,0.01,enough cells in well,257,106
Grk3,1,-0.35,enough cells in well,185,269

Already shown: an excerpt of the list.
gene,pool no.,Tnf reporter robust z-score,fewer than 50 cells in well,"Tnf reporter intensity, replicate 1","Tnf reporter intensity, replicate 2"
Arid4a,1,,fewer than 50 cells per well; well left out of calls,360,118
Zfp758,1,0.96,enough cells in well,267,180
Ruvbl1,1,0.42,enough cells in well,317,257
